The source of these data is patent US8765444 (BOARD OF TRUSTEES OF THE UNIVERSITY OF ILLINOIS, dated 2014).

Results are given in words; binding and its absence hold for the method and conditions named. Some binding calls cover weakened binding; strength is not graded here. Tags and fused reporters may be left off the sequences shown.

For this assay, the target named is T1, FLAG-TBK1 (Homo sapiens (Human)) (UniProt Q9UHD2).
T1 sequence: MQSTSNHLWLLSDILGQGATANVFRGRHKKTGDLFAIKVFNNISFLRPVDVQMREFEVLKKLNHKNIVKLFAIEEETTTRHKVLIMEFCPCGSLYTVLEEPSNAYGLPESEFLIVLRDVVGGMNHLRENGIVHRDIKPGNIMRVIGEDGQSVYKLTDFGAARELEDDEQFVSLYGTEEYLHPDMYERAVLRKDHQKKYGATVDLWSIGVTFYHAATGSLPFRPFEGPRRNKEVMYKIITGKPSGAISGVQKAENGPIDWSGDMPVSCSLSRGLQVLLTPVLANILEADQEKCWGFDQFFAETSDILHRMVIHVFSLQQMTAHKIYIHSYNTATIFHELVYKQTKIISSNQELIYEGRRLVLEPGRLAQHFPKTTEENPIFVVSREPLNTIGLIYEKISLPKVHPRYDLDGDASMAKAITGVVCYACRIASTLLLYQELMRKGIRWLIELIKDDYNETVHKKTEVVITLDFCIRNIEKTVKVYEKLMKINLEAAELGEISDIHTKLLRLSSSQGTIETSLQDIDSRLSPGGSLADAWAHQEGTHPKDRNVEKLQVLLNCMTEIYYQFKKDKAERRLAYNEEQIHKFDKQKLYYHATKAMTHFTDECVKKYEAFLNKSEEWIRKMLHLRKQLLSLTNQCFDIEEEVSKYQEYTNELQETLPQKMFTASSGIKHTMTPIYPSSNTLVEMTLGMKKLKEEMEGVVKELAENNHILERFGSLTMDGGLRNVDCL
As to the kind of experiment: anti-FLAG immunoprecipitation of the FLAG-TBK1 complex from transfected 293T cells, blot.

B1: IRF3 (protein, UniProt Q14653 1-427, looked up)
chain: MGTPKPRILPWLVSQLDLGQLEGVAWVNKSRTRFRIPWKHGLRQDAQQEDFGIFQAWAEATGAYVPGRDKPDLPTWKRNFRSALNRKEGLRLAEDRSKDPHDPHKIYEFVNSGVGDFSQPDTSPDTNGGGSTSDTQEDILDELLGNMVLAPLPDPGPPSLAVAPEPCPQPLRSPSLDNPTPFPNLGPSENPLKRLLVPGEEWEFEVTAFYRGRQVFQQTISCPEGLRLVGSEVGDRTLPGWPVTLPDPGMSLTDRGVMSYVRHVLSCLGGGLALWRAGQWLWAQRLGHCHTYWAVSEELLPNSGHGPDGEVPKDKEGGVFDLGPFIVDLITFTEGSGRSPRYALWFCVGESWPQDQPWTKRLVMVKVVPTCLRALVEMARVGGASSLENTVDLHISNSHPLSLTSDQYKAYLQDLVEGMDFQGPGES
On to B1, for which the binding entry was “binds”.
